PMC5126104, “Identification of a Chemoreceptor in Pseudomonas aeruginosa That Specifically Mediates Chemotaxis Toward α-Ketoglutarate” (Frontiers in Microbiology, 2016)
These are yes or no findings as the source states them, for the method shown. Some results given as binding are weak or reduced against the parent protein; the word gives no strength.

Target: McpK ligand binding domain (McpK-LBD) (Pseudomonas aeruginosa PAO1) (UniProt Q9HUB1)
Assay: AUC; sedimentation velocity, ligand-free McpK-LBD (10-50 uM), 7 °C, 5 mM Tris, 5 mM PIPES, 5 mM MES, pH 8.0; c(s) analysis in SEDFIT; both purified

B1: McpK ligand binding domain (McpK-LBD) (domain or fragment, Pseudomonas aeruginosa PAO1, UniProt Q9HUB1 38-293, looked up)
chain: RTLTHQTALSEQLAEVASLMEQTQQAEQGRLAFEAGSDPRQAEQVRQTLAGMLQRLQALRDSELDPAALAHQVEAIEAYRKAFDDLAAADQQRSAARGVLVGTAQQALDSFARLEELMDASLAQQAGDPQALQRSRAVADLHQQLLMVRYQVRGYVFERSDKAEQAAFAAFDALRQAATTLRGQLPGEADAALEQAMGSLQGYRGGIEQFRAGVIRTRQAQQAMQSSTQDMARAGRTLTEAGRQLRESTASRDRAS
notes: No removal of the tag is described; In monomer-dimer equilibrium by AUC; also called PA5072-LBD; source: E. coli BL21 (DE3), pET28-McpK-LBD, purified (HisTrap column)
In the case of B1, the binding is reported as “binds”.
